According to patent publication US20180371091A1 (JOUNCE THERAPEUTICS, published 2018):
These are yes or no findings as the source states them, for the method shown. Some results given as binding are weak or reduced against the parent protein; the word gives no strength. For some of these results: Sequences can lack the tags named with a protein.

T1: cynomolgus ICOS-Fc (homodimeric, bivalent) (cynomolgus monkey)
T1 sequence: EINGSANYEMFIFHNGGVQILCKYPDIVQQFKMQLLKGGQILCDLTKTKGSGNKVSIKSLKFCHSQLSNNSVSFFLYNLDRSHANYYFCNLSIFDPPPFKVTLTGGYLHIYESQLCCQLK

T2: rat ICOS-Fc (rat) (UniProt Q9R1T7)
T2 sequence: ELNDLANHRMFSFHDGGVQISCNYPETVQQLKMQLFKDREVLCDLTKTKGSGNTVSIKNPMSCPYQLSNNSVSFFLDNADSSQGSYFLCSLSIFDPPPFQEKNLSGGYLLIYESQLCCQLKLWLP

T3: mouse ICOS (full length, on cells) (mouse, UniProt Q9WVS0 21-200)
T3 construct: also called CHO-mICOS; mouse ICOS+ CHO cells
T3 sequence: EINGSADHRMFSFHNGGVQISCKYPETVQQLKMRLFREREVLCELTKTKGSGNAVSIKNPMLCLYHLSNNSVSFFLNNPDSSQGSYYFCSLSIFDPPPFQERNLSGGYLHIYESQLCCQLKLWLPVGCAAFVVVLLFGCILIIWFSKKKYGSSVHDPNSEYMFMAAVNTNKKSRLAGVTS


Tests used:
[1] = target: T1, cynomolgus ICOS-Fc (homodimeric, bivalent) (cynomolgus monkey); test: BLI
rat ICOS-Fc (rat) = target: T2, rat ICOS-Fc (rat); test: BLI
[2] = target: T3, mouse ICOS (full length, on cells); test: receptor availability assay, flow cytometry on blood T cells of dosed mice

Binder | binding [1] | binding (rat ICOS-Fc (rat)) | binding [2]
7F12 (antibody, V domains shown, Armenian hamster monoclonal tested as IgG; also called hamster anti-ICOS 7F12) VH: EVQLVESGGGLVKPGGSLTLSCAASGFTFSDYWMDWVRQGPGKGLEWVGNIDEDGSTTYYAPFVKGRFTISRDNAKKTLYLQMNSVKSEDTATYYCTRWGRYAFDSWGQGTLVTVSS VL: DIVMTQSPSSLAVSPGDKVTINCKSSQSLLSGNYNYLAWYQQKTGQAPKLLIFYASTRHTGVPDRFMGSGSGTDFSLTINSFQTEDLGDYYCQHHYSTPPTFGPGTKLEIK | binds | binds | –
37A10 (antibody, V domains shown, Armenian hamster monoclonal tested as IgG; also called hamster anti-ICOS 37A10) VH: EVQLVESGGGLVKPGGSLKLSCAASGFTFSDYWMDWVRQAPGKGLEWVGNIDEDGSITEYSPFVKGRFTISRDNVKNTLYLQMNSVKSEDTATYYCTRWGRFGFDSWGQGTLVTVSS VL: DIVMTQSPSSLAVSAGDRVTINCKSSQSLLSGSFNYLTWYQQKTGQAPKLLIFYASTRHTGVPDRFMGSGSGTDFTLTINSFQTEDLGDYYCHHHYNAPPTFGPGTKLELR | – | binds | –
35A9 (antibody, V domains shown, Armenian hamster monoclonal tested as IgG; also called hamster anti-ICOS 35A9) VH: EVQLVESGGGLVKPGGSLKLSCAASGFTFSDYWMDWVRQAPGKGLEWVGNIDEDGSIAEYSPFVKGRFTISRDNVKNTLYLQMNSVKSEDTATYYCSRWGRFAFDSWGQGTLVTVSS VL: DIVMTQSPSSLAVSAGDRVTINCKSSQSLLSGSFNYLTWYQQKTGQAPKLLIFYASTRHTGVPDRFMGSGSGTDFTLTINSFQTEDLGDYYCHHHYNAPPTFGPGTKLELR | binds | binds | –
36E10 (antibody, V domains shown, Armenian hamster monoclonal tested as IgG; also called hamster anti-ICOS 36E10) VH: EVQLVESGGGLVKPGGSLKLSCAASGFTFSDYWMDWVRQAPGKGLEWVGNIDEDGSITEYSPFVKGRFTISRDNVKNILYLQMNSVKSEDTATYYCTRWGRFAFDSWGQGTLVTVSS VL: DIVMTQSPSSLAVSPGDRVTINCKSSQSLLSGSFHYLTWYQQKTGQAPKLLIFYASTRHTGVPDRFMGSGSGTDFTLTINSFQTEDLGDYYCHHHYNAPPTFGPGTKLELR | binds | binds | –
16G10 (antibody, V domains shown, Armenian hamster monoclonal tested as IgG; also called hamster anti-ICOS 16G10) VH: EVQLVESGGGLVKPGGSLKLSCAASGFTFSDYWMDWVRQAPGKGLEWVGNIDHDGNIINFAPSVKGRFTISRDNAKNTLYLQMNSVKSEDTATYYCARWGHYAFDSWGQGTLVTVSS VL: DIVMTQSPSSLAVSAGDKVTINCKSSQSLLSSGYNYLIWYQQKTGQAPKLLIFYASTRHTGVPDRFIGSGSGTDFTLTITSFQTEDLGDYYCQHHYSSPPTFGPGTKLEIK | binds | binds | –
37A10S713-mIgG2a (antibody, V domains shown) VH: EVQLVESGGGLVQPGGSLRLSCAASGFTFSDYWMDWVRQAPGKGLVWVSNIDEDGSITEYSPFVKGRFTISRDNAKNTLYLQMNSLRAEDTAVYYCTRWGRFGFDSWGQGTLVTVSS VL: DIVMTQSPDSLAVSLGERATINCKSSQSLLSGSFNYLTWYQQKPGQPPKLLIFYASTRHTGVPDRFSGSGSGTDFTLTISSLQAEDVAVYYCHHHYNAPPTFGPGTKVDIK | – | – | binds
